Reference: PubChem BioAssay AID330 (DTP/NCI, 2004)
The list shows only some results of the screen, not a fair sample: it is rich in T/C values a quarter to a half above the control, in often repeated tests (any T/C) and in doses without a T/C. Other doses and runs of a compound stand elsewhere. T/C: endpoint of the treated group in % of that of the vehicle group. Some entries give survivors of the animals treated and no T/C: the source holds a T/C of zero for them, seemingly a mark for toxic or unscored doses. Some survivor counts are full or nearly so, which does not show that the dose was tolerated: survival well below the control is almost never listed, so the zero probably covers shortened survival too. Counts of survivors are from the toxicity check (mostly the fifth day) where no day follows; animals may have died later. Schedule codes are those of the source, taken here to give the interval after Q, in days (D) or hours (H), and the number of doses after X. Some entries were tested several times; their values stand side by side, smallest first. Where survival is the endpoint, the PubChem record calls one and a half times the control and up active, and a quarter to a half above the control has no call in these data; cut-offs in other NCI protocols can differ. Some T/C values are followed by the survivors on the day toxicity was checked, most often the fifth; where none is given, no animal had died by that day.

System: P388 leukemia ip, CD2F1 mice, survival T/C
Experiment: NCI In Vivo Anticancer Drug Screen. Data for tumor model P388 Leukemia (intraperitoneal) in CD2F1 (CDF1) mice
Conditions: T/C endpoint: median survival time, higher T/C = longer survival
[1] = dose: 120.0 mg/kg/injection, schedule: Q01DX005 (ip), vehicle: saline
[2] = dose: 240.0 mg/kg/injection, schedule: Q01DX005 (ip), vehicle: saline
[3] = dose: 200.0 mg/kg/injection, schedule: Q01DX009 (ip), vehicle: saline with Tween-80
[4] = dose: 200.0 mg/kg/injection, schedule: Q01DX009 (ip), vehicle: saline
[5] = dose: 100.0 mg/kg/injection, schedule: Q01DX009 (ip), vehicle: saline with Tween-80
[6] = dose: 400.0 mg/kg/injection, schedule: Q01DX009 (ip), vehicle: saline with Tween-80
[7] = dose: 200.0 mg/kg/injection, schedule: Q01DX005 (ip), vehicle: saline
[8] = dose: 200.0 mg/kg/injection, schedule: Q01DX009 (ip), vehicle: Klucel (hydroxypropylcellulose) (HPC)
[9] = dose: 1.56 mg/kg/injection, schedule: Q01DX009 (ip), vehicle: saline with Tween-80
[10] = dose: 3.12 mg/kg/injection, schedule: Q01DX009 (ip), vehicle: saline with Tween-80
[11] = dose: 50.0 mg/kg/injection, schedule: Q01DX009 (ip), vehicle: saline with Tween-80
[12] = dose: 100.0 mg/kg/injection, schedule: Q01DX005 (ip), vehicle: Klucel (hydroxypropylcellulose) (HPC)
[13] = dose: 200.0 mg/kg/injection, schedule: Q01DX005 (ip), vehicle: Klucel (hydroxypropylcellulose) (HPC)

**Q.** Which results are given for CNC(=O)OCc1c(COC(=O)NC)c(-c2ccc(-c3ccccc3)cc2)n(C)c1C?
**A.** T/C (dose: 1.88 mg/kg/injection, schedule: Q01DX009 (ip), vehicle: distilled water + Tween-80): 135 % of control; T/C (dose: 3.75 mg/kg/injection, schedule: Q01DX009 (ip), vehicle: distilled water + Tween-80): 144 % of control; T/C (dose: 7.5 mg/kg/injection, schedule: Q01DX009 (ip), vehicle: distilled water + Tween-80): 144 % of control; T/C (dose: 30.0 mg/kg/injection, schedule: Q01DX009 (ip), vehicle: distilled water + Tween-80): 144 % of control; survivor count (dose: 40.0 mg/kg/injection, schedule: Q01DX009 (ip), vehicle: distilled water + Tween-80): 5 of 6

**Q.** FC(F)(F)c1ccc(-c2ccc(OCCN3CCCC3)cc2)cc1 was tested. Which survivor count (dose: 100.0 mg/kg/injection, schedule: Q04DX003 (ip), vehicle: saline sonified) did it give?
**A.** 6 of 6

**Q.** And the survivor count (dose: 200.0 mg/kg/injection, schedule: Q04DX003 (ip), vehicle: saline sonified)?
**A.** 3 of 6

**Q.** For CCCCCC[N+]1([O-])CC[N+]([O-])(CCCCCC)CC1 (stereo not given), which survivor count [1] is on record?
**A.** 0 of 6

**Q.** What about the survivor count [2] of the same molecule?
**A.** 0 of 6

**Q.** How did the survivor count [3] turn out when COc1cccc(CN2CCN(/N=C/c3c4c(O)c5c(O)c(C)c6c(c5c3O)C(=O)C(C)(O/C=C/C(OC)C(C)C(OC(C)=O)C(C)C(O)C(C)C(O)C(C)/C=C/C=C(C)C(=O)N4)O6)CC2)c1 (stereo not given) was run?
**A.** 3 of 6

**Q.** With CN1CCN(c2ccncc2S(=O)(=O)N2CCCC2)CC1 as the molecule, how does the survivor count [4] read?
**A.** 2 of 6

**Q.** Which T/C [5] does the source give for COC1/C=C/OC2(C)Oc3c(C)c(O)c4c(O)c(c(/C=N/N5C(C)CN(Cc6ccc(C(C)(C)C)cc6)CC5C)c(O)c4c3C2=O)NC(=O)/C(C)=C\C=C\C(C)C(O)C(C)C(O)C(C)C(OC(C)=O)C1C (stereo not given) here?
**A.** 134 % of control

**Q.** What about the survivor count [3] of the same molecule?
**A.** 6 of 6

**Q.** Which survivor count [3] does the source give for Nc1c(Cl)c(Cl)c(Br)c(Cl)c1Cl here?
**A.** 6 of 6

**Q.** Which results are given for O=C(c1ccco1)C(O)NC(=S)c1ccc(Cl)cc1 (stereo not given)?
**A.** T/C [5]: 126 % of control; T/C [3]: 126 and 130 % of control; T/C [6]: 135 % of control

**Q.** CCC(CC)C(=O)NN(C)C was tested. Which survivor count [7] did it give?
**A.** 2 of 6

**Q.** How did the survivor count [8] turn out when COC(=O)c1cc(NC(=O)NNC(=O)c2ccncc2)cc(C(=O)OC)c1 was run?
**A.** 1 of 6

**Q.** Which results are given for CCCN1COC(OCC)C(C)(C)C1 (stereo not given)?
**A.** T/C [5]: 133 and 145 % of control; survivor count [3]: 0 of 6

**Q.** Which survivor count (dose: 50.0 mg/kg/injection, schedule: Q01DX001 (ip), vehicle: Klucel (hydroxypropylcellulose) (HPC)) does the source give for O=C1C=CCC12CC=CC2=O here?
**A.** 0 of 6

**Q.** What about the survivor count (dose: 100.0 mg/kg/injection, schedule: Q01DX001 (ip), vehicle: Klucel (hydroxypropylcellulose) (HPC)) of the same molecule?
**A.** 0 of 6

**Q.** What about the survivor count (dose: 200.0 mg/kg/injection, schedule: Q01DX001 (ip), vehicle: Klucel (hydroxypropylcellulose) (HPC)) of the same molecule?
**A.** 0 of 6

**Q.** With C[CH2][Sn]1([CH2]C)[O]OC(c2ccccc2)[O]1 (stereo not given) as the molecule, how does the T/C [9] read?
**A.** 133 % of control

**Q.** What about the T/C [10] of the same molecule?
**A.** 142 and 144 % of control

**Q.** And the T/C (dose: 6.25 mg/kg/injection, schedule: Q01DX009 (ip), vehicle: saline with Tween-80)?
**A.** 146 [5 of 6 alive] and 148 % of control

**Q.** And the survivor count (dose: 12.5 mg/kg/injection, schedule: Q01DX009 (ip), vehicle: saline with Tween-80)?
**A.** 0 of 6

**Q.** And the survivor count (dose: 25.0 mg/kg/injection, schedule: Q01DX009 (ip), vehicle: saline with Tween-80)?
**A.** 0 of 6 and 1 of 6

**Q.** CCC1CCC2CCCCN2CO1 (stereo not given) was tested. Which survivor count [7] did it give?
**A.** 2 of 6

**Q.** With Cc1ccc(C(=O)CCN(C)C)c(C)c1 as the molecule, how does the survivor count [1] read?
**A.** 0 of 6

**Q.** What about the survivor count [2] of the same molecule?
**A.** 0 of 6

**Q.** CN(C)c1ccc(/C=C/c2ccnc3ccc4ccccc4c23)cc1 was tested. Which survivor count [6] did it give?
**A.** 6 of 6

**Q.** Which survivor count [7] does the source give for CC1CN(Cc2ccccc2)CCC1N1CCCCC1 (stereo not given) here?
**A.** 0 of 6

**Q.** Which T/C (dose: 25.0 mg/kg/injection, schedule: Q04DX002 (ip), vehicle: saline with Tween-80) does the source give for CC([NH-])C[NH-].[I][Pt+2][I] (stereo not given) here?
**A.** 143 and 148 % of control

**Q.** What about the T/C (dose: 50.0 mg/kg/injection, schedule: Q04DX002 (ip), vehicle: saline with Tween-80) of the same molecule?
**A.** 141 and 143 % of control

**Q.** With CS/N=C(\c1ccccc1)N(C)C as the molecule, how does the survivor count (dose: 30.0 mg/kg/injection, schedule: Q01DX005 (ip), vehicle: Klucel (hydroxypropylcellulose) (HPC)) read?
**A.** 0 of 6

**Q.** And the survivor count (dose: 60.0 mg/kg/injection, schedule: Q01DX005 (ip), vehicle: Klucel (hydroxypropylcellulose) (HPC))?
**A.** 0 of 6

**Q.** What about the survivor count (dose: 120.0 mg/kg/injection, schedule: Q01DX005 (ip), vehicle: Klucel (hydroxypropylcellulose) (HPC)) of the same molecule?
**A.** 0 of 6

**Q.** And the survivor count (dose: 240.0 mg/kg/injection, schedule: Q01DX005 (ip), vehicle: Klucel (hydroxypropylcellulose) (HPC))?
**A.** 0 of 6

**Q.** How did the survivor count [11] turn out when O=C(OCC1C=C(OC(=O)c2ccccc2)C(=O)C(OC(=O)c2ccccc2)O1)c1ccccc1 (stereo not given) was run?
**A.** 6 of 6

**Q.** Which survivor count [3] does the source give for ClC1(Cl)C2CCCCC21 (stereo not given) here?
**A.** 0 of 6

**Q.** Which survivor count [8] does the source give for CCN1C2=NCCN2C(=O)c2ccccc21 here?
**A.** 0 of 6

**Q.** CCN(CC)CCCC(C)Nc1cc(C)nc2cc(N(C)C)ccc12 (stereo not given) was tested. Which survivor count (dose: 50.0 mg/kg/injection, schedule: Q01DX009 (ip), vehicle: Klucel (hydroxypropylcellulose) (HPC)) did it give?
**A.** 3 of 6

**Q.** Which survivor count [12] does the source give for CCCCOc1ccc2nc(C)cc(N/N=C/c3ccc(OC)c4ccccc34)c2c1 here?
**A.** 5 of 6

**Q.** And the survivor count [13]?
**A.** 0 of 6

**Q.** What does the source list for Cc1c2oc3c(C)ccc(C(=O)NC4C(=O)NC(C(C)C)C(=O)N5CCCC5C(=O)N(C)CC(=O)N(C)C(C(C)C)C(=O)OC4C)c3nc-2c(C(=O)NC2C(=O)NC(C(C)C)C(=O)N3CCCC3C(=O)N(C)CC(=O)N(C)C(C(C)C)C(=O)OC2C)c(Cl)c1=O (stereo not given)?
**A.** T/C (dose: 0.4 mg/kg/injection, schedule: Q01DX009 (ip), vehicle: water): 125 % of control; T/C (dose: 0.8 mg/kg/injection, schedule: Q01DX009 (ip), vehicle: water): 125 % of control; T/C (dose: 1.6 mg/kg/injection, schedule: Q01DX009 (ip), vehicle: water): 136 and 144 % of control; T/C (dose: 3.13 mg/kg/injection, schedule: Q01DX009 (ip), vehicle: water): 126 % of control; T/C (dose: 3.2 mg/kg/injection, schedule: Q01DX009 (ip), vehicle: water): 147 % of control; T/C (dose: 6.25 mg/kg/injection, schedule: Q01DX009 (ip), vehicle: water): 131 % of control; survivor count (dose: 50.0 mg/kg/injection, schedule: Q01DX009 (ip), vehicle: water): 3 of 3 and 6 of 6; survivor count (dose: 100.0 mg/kg/injection, schedule: Q01DX009 (ip), vehicle: water): 0 of 3

**Q.** How did the survivor count [11] turn out when CCCCCCCCCCCCCCCC(=O)NC(CCCCN)C(=O)NC(CCCCN)C(=O)OCC (stereo not given) was run?
**A.** 2 of 6 and 3 of 6

**Q.** What about the survivor count [5] of the same molecule?
**A.** 0 of 6

**Q.** And the survivor count [3]?
**A.** 0 of 6

**Q.** How did the survivor count [12] turn out when O=[N+]([O-])c1ccc(/C=C\S(=O)(=O)OCCCl)cc1 was run?
**A.** 3 of 6

**Q.** And the survivor count [13]?
**A.** 0 of 6

**Q.** Which survivor count (dose: 3.0 mg/kg/injection, schedule: Q01DX009 (ip), vehicle: saline with Tween-80) does the source give for COC1=C2C[C@@H](C)C[C@@H](OC)[C@@H](O)[C@H](C)/C=C(\C)[C@@H](OC(N)=O)[C@H](OC)/C=C\C=C(/C)C(=O)NC(=CC1=O)C2=O here?
**A.** 6 of 6

**Q.** Cc1ncc(N)c(C(=O)O)n1 was tested. Which survivor count [13] did it give?
**A.** 5 of 5

**Q.** With CCCCCNCC(=O)O as the molecule, how does the survivor count [7] read?
**A.** 6 of 6

**Q.** Which results are given for CC1(C)N=C(N)N=C(N)N1c1cccc(OCCOc2ccc([N+](=O)[O-])cc2)c1?
**A.** T/C (dose: 66.0 mg/kg/injection, schedule: Q01DX009 (ip), vehicle: saline): 127 % of control; T/C (dose: 100.0 mg/kg/injection, schedule: Q01DX009 (ip), vehicle: saline): 127 % of control; T/C (dose: 150.0 mg/kg/injection, schedule: Q01DX009 (ip), vehicle: saline): 127 % of control

**Q.** What does the source list for Cc1ccnc(NS(=O)(=O)c2ccc(N=Nc3nc4[nH]c(N)nc(=S)c4[nH]3)cc2)n1?
**A.** T/C (dose: 0.39 mg/kg/injection, schedule: Q01DX009 (ip), vehicle: saline with Tween-80): 126 % of control; T/C (dose: 0.78 mg/kg/injection, schedule: Q01DX009 (ip), vehicle: saline with Tween-80): 135 % of control; T/C [9]: 149 % of control; T/C [10]: 133 % of control

**Q.** For COC(=O)CCCOCCCC(=O)OC, which survivor count [4] is on record?
**A.** 4 of 6
